Results are given in words; binding and its absence hold for the method and conditions named. In cells and extracts the contact can be indirect. Some binding calls cover weakened binding; strength is not graded here.
Legend:
[1] = target: Cereblon (CRBN), endogenous in HEK cells (human (endogenous in HEK293T)) (UniProt Q96SW2); assay: co-IP; endogenous proteins from HEK cell extracts, cells treated with PBS or Wnt3a for 4 h with 10 μM MG132; CRBN antibodies or PTEN antibodies overnight at 4 °C, Protein G agarose; immunoblotting
[2] = target: CRBN, endogenous in mouse fibroblasts (NIH3T3 cells) (mouse (endogenous in NIH3T3)) (UniProt Q8C7D2); assay: co-IP; endogenous proteins from NIH3T3 lysates, cells treated with Wnt3a; CRBN antibodies conjugated to agarose beads, overnight at 4 °C; immunoblotting
[3] = target: CRBN, endogenous in mouse fibroblasts (NIH3T3 cells) (mouse (endogenous in NIH3T3)) (UniProt Q8C7D2); assay: condition: only cells treated with lenalidomide, without Wnt3a; co-IP; endogenous proteins from NIH3T3 lysates, cells treated with lenalidomide; CRBN antibodies conjugated to agarose beads, overnight at 4 °C; immunoblotting

By UniProt entry, the sequences of proteins in these tests, tags left out.
UniProt Q96SW2: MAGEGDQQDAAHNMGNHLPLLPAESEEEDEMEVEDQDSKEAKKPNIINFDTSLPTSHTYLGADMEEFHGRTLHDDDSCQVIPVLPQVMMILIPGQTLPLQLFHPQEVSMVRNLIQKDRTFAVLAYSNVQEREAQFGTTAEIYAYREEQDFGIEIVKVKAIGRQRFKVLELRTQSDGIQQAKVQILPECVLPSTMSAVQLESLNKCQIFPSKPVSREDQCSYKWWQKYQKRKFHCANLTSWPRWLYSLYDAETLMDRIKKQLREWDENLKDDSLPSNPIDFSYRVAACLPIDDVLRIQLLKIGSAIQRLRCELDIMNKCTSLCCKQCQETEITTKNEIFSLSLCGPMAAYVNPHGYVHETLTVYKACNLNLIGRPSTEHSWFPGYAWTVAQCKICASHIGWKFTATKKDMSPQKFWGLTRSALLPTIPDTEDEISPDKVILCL
UniProt Q8C7D2: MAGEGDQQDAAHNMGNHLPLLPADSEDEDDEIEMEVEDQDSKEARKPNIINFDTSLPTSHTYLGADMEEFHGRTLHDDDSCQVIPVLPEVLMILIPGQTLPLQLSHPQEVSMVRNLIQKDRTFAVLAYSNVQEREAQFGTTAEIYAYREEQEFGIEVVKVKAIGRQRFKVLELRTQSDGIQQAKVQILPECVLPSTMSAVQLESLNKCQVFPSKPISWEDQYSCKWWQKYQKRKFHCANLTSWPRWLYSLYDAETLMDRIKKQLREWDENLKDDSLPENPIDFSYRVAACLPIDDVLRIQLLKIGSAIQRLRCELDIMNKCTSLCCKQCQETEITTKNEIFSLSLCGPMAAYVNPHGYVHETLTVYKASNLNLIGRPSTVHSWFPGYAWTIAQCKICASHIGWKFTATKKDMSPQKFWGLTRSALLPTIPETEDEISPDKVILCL
UniProt O15169: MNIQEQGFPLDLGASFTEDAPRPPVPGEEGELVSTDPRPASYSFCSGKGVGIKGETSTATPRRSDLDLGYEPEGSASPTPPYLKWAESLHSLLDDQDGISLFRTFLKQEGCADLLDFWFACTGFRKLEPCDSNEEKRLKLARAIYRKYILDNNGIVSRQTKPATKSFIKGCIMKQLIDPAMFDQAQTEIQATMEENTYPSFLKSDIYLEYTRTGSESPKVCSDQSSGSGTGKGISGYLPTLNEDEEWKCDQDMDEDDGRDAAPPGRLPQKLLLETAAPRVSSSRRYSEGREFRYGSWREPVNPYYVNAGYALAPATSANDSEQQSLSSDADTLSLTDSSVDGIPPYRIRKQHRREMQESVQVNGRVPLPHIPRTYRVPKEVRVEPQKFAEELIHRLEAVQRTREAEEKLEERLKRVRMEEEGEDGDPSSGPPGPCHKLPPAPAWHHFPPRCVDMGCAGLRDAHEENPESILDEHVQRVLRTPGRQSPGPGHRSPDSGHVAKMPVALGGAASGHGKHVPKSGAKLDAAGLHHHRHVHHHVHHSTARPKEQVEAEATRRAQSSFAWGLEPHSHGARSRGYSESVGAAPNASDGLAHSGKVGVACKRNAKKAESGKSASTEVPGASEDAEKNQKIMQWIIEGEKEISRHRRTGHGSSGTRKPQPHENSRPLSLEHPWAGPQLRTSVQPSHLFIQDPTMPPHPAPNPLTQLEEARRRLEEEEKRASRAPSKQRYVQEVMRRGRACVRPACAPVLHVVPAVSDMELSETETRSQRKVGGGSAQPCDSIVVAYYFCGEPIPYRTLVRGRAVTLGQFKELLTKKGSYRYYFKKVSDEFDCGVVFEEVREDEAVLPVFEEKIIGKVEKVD
UniProt Q8BK63: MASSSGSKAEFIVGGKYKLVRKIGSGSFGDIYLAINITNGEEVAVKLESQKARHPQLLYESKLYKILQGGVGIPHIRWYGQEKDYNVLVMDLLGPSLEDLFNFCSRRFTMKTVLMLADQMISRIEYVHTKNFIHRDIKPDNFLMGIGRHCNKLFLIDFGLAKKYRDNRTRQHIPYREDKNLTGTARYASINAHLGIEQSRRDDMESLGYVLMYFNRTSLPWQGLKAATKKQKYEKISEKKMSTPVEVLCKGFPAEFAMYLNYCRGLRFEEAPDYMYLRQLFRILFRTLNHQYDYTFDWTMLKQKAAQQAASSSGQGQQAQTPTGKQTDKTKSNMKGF

Axin1, endogenous in HEK cells (from UniProt O15169 1-862)
binding [1]: binds

CK1α, endogenous in mouse fibroblasts (NIH3T3 cells) (from UniProt Q8BK63 1-337)
binding [2]: binds | binding [3]: no binding
